Article PMC8195999

By UniProt entry, the sequences of proteins in these tests, tags left out.
UniProt O54917: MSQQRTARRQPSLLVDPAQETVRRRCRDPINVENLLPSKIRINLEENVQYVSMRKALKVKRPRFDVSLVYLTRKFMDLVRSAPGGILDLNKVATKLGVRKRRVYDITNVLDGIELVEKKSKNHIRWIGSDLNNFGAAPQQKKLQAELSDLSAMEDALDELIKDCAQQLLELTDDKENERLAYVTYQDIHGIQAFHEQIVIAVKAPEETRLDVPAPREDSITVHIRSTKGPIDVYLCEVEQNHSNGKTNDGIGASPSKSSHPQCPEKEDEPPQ

Legend:
[1] = biological target: 3×HA-E2F6 (UniProt O54917); assay: affinity purification with mass spectrometry; anti-HA microbeads (mMACS, Miltenyi Biotec) on 1 mg nuclear extract of E14TG2a ESCs expressing 3×HA-E2F6 against control E14TG2a cells; nanoLC-MS/MS, spectral counts; enriched: fold change >2 and adjusted p-value < 0.05; n = 5
[2] = biological target: 3×HA-E2F6, O54917; assay: as above; details: remark: other sources report otherwise

B1: PCGF6 (protein, UniProt Q99NA9 1-353)
chain: MDEAETDATENKRASEAKRASAMPPPPPPPPPISPPALIPAPAAGEEGPASLGQAGAAGCSRSRPPALEPERSLGRLRGRFEDYDEELEEEEEMEEEEEEEEEMSHFSLRLESGRADSEDEEERLINLVELTPYILCSICKGYLIDATTITECLHTFCKSCIVRHFYYSNRCPKCNIVVHQTQPLYNIRLDRQLQDIVYKLVINLEEREKKQMHDFYKERGLEVPKPAAPQPVPSSKGKTKKVLESVFRIPPELDMSLLLEFIGANEDTGHFKPLEKKFVRVSGEATIGHVEKFLRRKMGLDPACQVDIICGDHLLERYQTLREIRRAIGDTAMQDGLLVLHYGLVVSPLKIT
In the case of B1, the binding [1] is reported as “binds”.

B2: DP1 (protein, UniProt Q08639 1-410)
chain: MAKDASLIEANGELKVFIDQNLSPGKGVVSLVAVHPSTVNTLGKQLLPKTFGQSNVNITQQVVIGTPQRPAASNTIVVGSPHTPNTHFVSQNQTSDSSPWSAGKRNRKGEKNGKGLRHFSMKVCEKVQRKGTTSYNEVADELVAEFSAADNHILPNESAYDQKNIRRRVYDALNVLMAMNIISKEKKEIKWIGLPTNSAQECQNLEVERQRRLERIKQKQSQLQELILQQIAFKNLVQRNRQAEQQARRPPPPNSVIHLPFIIVNTSRKTVIDCSISNDKFEYLFNFDNTFEIHDDIEVLKRMGMACGLESGNCSAEDLKVARSLVPKALEPYVTEMAQGSIGGVFVTTTGSTSNGTRLSASDLSNGADGMLATSSNGSQYSGSRVETPVSYVGEDDDDDDDFNENDEED
B2 was tested, and the binding [1] was “binds”.

B3: RING1B, Q9CQJ4 1-336 (protein)
chain: MSQAVQTNGTQPLSKTWELSLYELQRTPQEAITDGLEIVVSPRSLHSELMCPICLDMLKNTMTTKECLHRFCADCIITALRSGNKECPTCRKKLVSKRSLRPDPNFDALISKIYPSRDEYEAHQERVLARINKHNNQQALSHSIEEGLKIQAMNRLQRGKKQQIENGSGAEDNGDSSHCSNASTHSNQEAGPSNKRTKTSDDSGLELDNNNAAVAIDPVMDGASEIELVFRPHPTLMEKDDSAQTRYIKTSGNATVDHLSKYLAVRLALEELRSKGESNQMNLDTASEKQYTIYIATASGQFTVLNGSFSLELVSEKYWKVNKPMELYYAPTKEHK
B3 was tested, and the binding [2] was “binds”.

B4: UHRF1 (protein, UniProt Q8VDF2 1-782)
chain: MWIQVRTMDGKETHTVNSLSRLTKVQELRKKIEEVFHVEPQLQRLFYRGKQMEDGHTLFDYDVRLNDTIQLLVRQSLALPLSTKERDSELSDSDSGYGVGHSESDKSSTHGEGAAEADDKTVWEDTDLGLYKVNEYVDVRDNIFGAWFEAQVVQVQKRALSEDEPCSSSAVKTSEDDIMYHVKYDDYPEHGVDIVKAKNVRARARTVIPWENLEVGQVVMANYNVDYPRKRGFWYDVEICRKRQTRTARELYGNIRLLNDSQLNNCRIMFVDEVLMIELPKERRPLIASPSQPPPALRNTGKSGPSCRFCKDDENKPCRKCACHVCGGREAPEKQLLCDECDMAFHLYCLKPPLTSVPPEPEWYCPSCRTDSSEVVQAGEKLKESKKKAKMASATSSSRRDWGKGMACVGRTTECTIVPANHFGPIPGVPVGTMWRFRVQVSESGVHRPHVAGIHGRSNDGAYSLVLAGGYEDDVDNGNYFTYTGSGGRDLSGNKRTAGQSSDQKLTNNNRALALNCHSPINEKGAEAEDWRQGKPVRVVRNMKGGKHSKYAPAEGNRYDGIYKVVKYWPERGKSGFLVWRYLLRRDDTEPEPWTREGKDRTRQLGLTMQYPEGYLEALANKEKSRKRPAKALEQGPSSSKTGKSKQKSTGPTLSSPRASKKSKLEPYTLSEQQANLIKEDKGNAKLWDDVLTSLQDGPYQIFLSKVKEAFQCICCQELVFRPVTTVCQHNVCKDCLDRSFRAQVFSCPACRFELDHSSPTRVNQPLQTILNQLFPGYGSGR
In the case of B4, the binding [1] is reported as “no binding”.

These are yes or no findings as the source states them, for the method shown. In cells and extracts the contact can be indirect. These calls come from enrichment with a bait or labelling near it, and not all partners need be listed. For some of these results: No binding means not detected with the bait.
